# Results as given in PubChem BioAssay AID2685 (National Center for Advancing Translational Sciences (NCATS), 2010).
# In all, about 320,000 compounds went through this assay and about 2,100 (0.66%) were called active. Inconclusive means that the source gave no clear call. Such entries were picked first, then a sample of the others. Calls follow the shape of the dose curve; as a rule, active = well fitted inhibition curve with a large enough effect in the signal ratio, with a control signal flat (not every such curve was filed as active); inconclusive = small, poorly fitted or top-dose-only effect, or effect the other way, or a change in a side signal; inactive = flat fitted curve, though single readings scatter; the % refers to the signal ratio. Potencies of inconclusive entries are doubtful fits and often do not repeat.
# Assay: qHTS Assay for Lipid Storage Modulators in Drosophila S3 Cells
# Details: BODIPY lipid droplet fluorescence, 18-24 h, cells fed with added oleic acid; lipid storage change, negative = inhibition: at 46.1 µM (top of the series) unless noted
# How it was run: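 Laser-scanning cytometry quantifies lipid droplet accumulation (500–530 nm total intensity; droplet/cell object ratio) in oleic acid-fed (400 uM added) Drosophila S3 cells treated with a concentration series. 20 uM Triacsin C defined 100% inhibition.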
# % is scaled to controls: 0 for no effect and ±100 for the full control effect; potency is read from the fitted curve at half-maximal effect.
SMILES,Potency,"lipid storage change, negative = inhibition"
O=C(CCC(=O)c1ccc(Cl)s1)Nc1ncccc1O,"inconclusive: 1840 nM [activator, full curve]",
COc1ccc2c(c1OC)C(=O)OC2N1C(=O)CC[C@H]1C(=O)Nc1ccc(F)cc1F (stereo partly drawn),,inconclusive: -1.44%
NC(=O)N/N=C/c1ccc(-c2ccc(S(=O)(=O)Nc3ncccn3)cc2)o1,,inconclusive
C=CCSc1nc(-c2ccccc2)c2cc(Cl)ccc2n1,"inconclusive: 920 nM [rising, full curve]",
C1CCCC(NC2=NCCO2)CCC1,,inconclusive: -18%
O=C(NC(=S)N1CCCC1)c1ccc(Cl)cc1,,inconclusive: -29.4%
CCOc1ccc(-c2c(C(=O)N/N=C/c3ccoc3)nnn2-c2nonc2N)cc1,,inconclusive: 31.3%
CSc1ccc(CNCCN2CCOCC2)cc1,,inconclusive: -15.4%
Cn1c(SCC(=O)Nc2nccs2)nnc1-c1ccco1,,inactive: 8.24%
O=C(/C=C/c1ccc(Cl)cc1Cl)OCC(=O)N1CCCC1,,inconclusive: 20.8%
c1ccc(Nc2nc(N3CCOCC3)c3ccccc3n2)cc1,"inconclusive: 29100 nM [activator, partial curve]",
CC(C)c1ccc(NC(=O)C2CCC(CNC(=O)[C@@H]3Cc4ccccc4CN3)CC2)cc1 (stereo partly drawn),"inconclusive: 25900 nM [activator, single point]",
C=CCn1c(=O)c(C(=O)NCc2ccccc2)c(O)c2ccccc21,,inconclusive: 30.6%
COc1ccc(NS(=O)(=O)c2ccc(-c3cnc(C4CC4)o3)cc2)cc1OC,"inconclusive: 146 nM [falling, full curve, poor fit]",
CCNC(=O)NC(=O)C(C)OC(=O)CNS(=O)(=O)c1c(Cl)cc(Br)cc1Cl (stereo not drawn),,inconclusive: 1.64%
CCN(CC(=O)Nc1ccccc1C(F)(F)F)C(=O)CCSc1ccc(F)cc1,,inconclusive: -24.5%
Cc1ccc(C)c(OCCC(=O)OCC(=O)NC2CCS(=O)(=O)C2)c1 (stereo not drawn),,inconclusive: 36.5%
Cc1ccc(C(=O)N/C(=C/c2ccco2)C(=O)NCCc2c[nH]c3ccccc23)cc1,,inconclusive: 24.4%
CC1=CC(=O)O[C@@H]1[C@@]1(C)C[C@H]2OC(=O)C[C@H]3[C@@H](C)C(=O)C(O)=C1[C@@]23CO,,inconclusive: 11.6%

# Two of these compounds in another layout.
SMILES | Potency | lipid storage change, negative = inhibition
CC(C)c1ccc(NC(=O)C2CCC(CNC(=O)[C@@H]3Cc4ccccc4CN3)CC2)cc1 (stereo partly drawn) | inconclusive: 25900 nM [activator, single point] | 
CC1=CC(=O)O[C@@H]1[C@@]1(C)C[C@H]2OC(=O)C[C@H]3[C@@H](C)C(=O)C(O)=C1[C@@]23CO |  | inconclusive: 11.6%

# Continuation.

SMILES,Potency,"lipid storage change, negative = inhibition"
Cc1ccc(NC(=O)CCC(=O)NNC(=O)c2ccccc2Cl)c(C)c1,"inconclusive: 92 nM [falling, full curve, poor fit]",
Cc1ccc(CSCC(=O)N(C)CC(=O)Nc2c(Cl)cccc2Cl)cc1,,inconclusive: -32.3% [at 0.0737 µM]
CCn1c(=O)[nH]c(=O)c2c(N)c(C(=O)c3cc(F)ccc3F)sc21,,inconclusive: 14.1%
COc1cc(-c2nc3ccc4ccccc4c3c3c2CCC3)cc(OC)c1OC,,inconclusive: -24.7%
CCN(CC)CCNc1ncnc2c1sc1nc(N3CCOCC3)c3c(c12)CC(C)(C)SC3,,inconclusive: -2.9%
COc1ccc2[nH]c3ccccc3c2c1,,inconclusive: 34% [activator] [at 0.0737 µM]
Cc1ncc([N+](=O)[O-])n1CC(=O)Nc1ccc(F)cc1F,"inconclusive: 580 nM [falling, single point]",
COC(=O)c1cn(CCC#N)nc1-c1ccc2ccccc2c1,,inconclusive: -47%
COC(=O)C1C2C=CC3(CN(Cc4ccco4)C(=O)C13)O2 (stereo not drawn),,inconclusive: -42.9%
O=C(NCc1ccccc1F)C1CCN(C(=O)Nc2ccc(F)cc2)CC1,,inconclusive: 22.1%
COC(=O)Cc1ccc(NC(=O)c2ccc3c(c2)C(=O)N(Cc2cccnc2)C3=O)cc1,,inconclusive: -58%
COc1ccc(CCNC(=O)C(CC(C)C)NC(N)=O)cc1 (stereo not drawn),,inconclusive: -31.2%
COCCN(CC(=O)NC1CCCCC1)C(=O)/C=C/C(=O)c1ccc(OC)cc1O,"inconclusive: 580 nM [falling, full curve, poor fit]",
CCOc1ccc(NC(=O)N2CCC(c3nc4ccccc4[nH]3)CC2)cc1,,inconclusive: 9.63%
CCOc1ccc(S(=O)(=O)NCCC(=O)OCC(=O)Nc2cc(C)on2)cc1,,inconclusive: -22.1%
O=C1CSC(c2ccc([N+](=O)[O-])cc2)N1c1ccc(O)cc1 (stereo not drawn),,inconclusive: -19.7%
CC(=O)N1c2ccc(F)c(F)c2C[C@H]1C,,inconclusive: 45.2%
Cc1ccc(N(CN2C(=O)c3ccccc3C2=O)C(=O)c2ccc([N+](=O)[O-])cc2[N+](=O)[O-])cc1,,inconclusive: 7.34%
Cc1c(C(=O)NCc2ccc3c(c2)OCO3)cccc1[N+](=O)[O-],"inconclusive: 18400 nM [activator, partial curve]",
